PubChem BioAssay AID1508597 | Cure First, 2020

Assay: 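Knock-downs altering ovarian cancer cell survival with or without PARP inhibitor rucaparib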 (primary screen)
Cells: human ovarian carcinoma lines grown from tumours: OCI-P5x (papillary serous) and OCI-C5x (clear cell)
Reagent: siRNA pool against human genes, 1.25 pmol siRNA per well
Timing: 72 h or 96 h, depending on the cell culture
Challenge: rucaparib 20 µM (about IC30) or vehicle, present until read-out
Measured: 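ATP luminescence measured at 72 or 96 h according to the culture, then normalised and expressed as percent viability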
Reading the numbers: viability, normalised: higher = more viable cells remaining
Call rule: 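a well counts as a hit if its normalised viability is under 80 percent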
Calls: active = viability under 80%; inactive = viability 80% or more
In all, the deposit lists about 2,100 reagents; below is a random part of them. 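Calls flag viability under 80% in either arm, not effects specific to rucaparib; the reference for percent is not stated.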 A reagent listed more than once was tested more than once; the source does not tell the runs apart. The record does not give: the 100% reference.

gene	rucaparib or vehicle	cell line	technical replicate	viability, normalised (%)	outcome
PI4K2B	Rucaparib	OCI-C5x (clear cell)	1	65.3	active
PI4K2B	Rucaparib	OCI-C5x (clear cell)	2	53.7	active
PI4K2B	Rucaparib	OCI-C5x (clear cell)	3	58.5	active
PI4K2B	Rucaparib	OCI-P5x (serous)	1	78	active
PI4K2B	Rucaparib	OCI-P5x (serous)	2	89.8	inactive
PI4K2B	Rucaparib	OCI-P5x (serous)	3	66.3	active
PI4K2B	Vehicle	OCI-C5x (clear cell)	1	45.1	active
PI4K2B	Vehicle	OCI-C5x (clear cell)	2	62.7	active
PI4K2B	Vehicle	OCI-C5x (clear cell)	3	59.5	active
PI4K2B	Vehicle	OCI-P5x (serous)	1	79.3	active
PI4K2B	Vehicle	OCI-P5x (serous)	2	67.9	active
PI4K2B	Vehicle	OCI-P5x (serous)	3	63.5	active
PMS2P4	Rucaparib	OCI-C5x (clear cell)	1	87.3	inactive
PMS2P4	Rucaparib	OCI-C5x (clear cell)	2	80.6	inactive
PMS2P4	Rucaparib	OCI-C5x (clear cell)	3	62.8	active
PMS2P4	Rucaparib	OCI-P5x (serous)	1	88.7	inactive
PMS2P4	Rucaparib	OCI-P5x (serous)	2	78	active
PMS2P4	Rucaparib	OCI-P5x (serous)	3	87.7	inactive
PMS2P4	Vehicle	OCI-C5x (clear cell)	1	64.7	active
PMS2P4	Vehicle	OCI-C5x (clear cell)	2	56.2	active
PMS2P4	Vehicle	OCI-C5x (clear cell)	3	70.5	active
PMS2P4	Vehicle	OCI-P5x (serous)	1	86.8	inactive
PMS2P4	Vehicle	OCI-P5x (serous)	2	111	inactive
PMS2P4	Vehicle	OCI-P5x (serous)	3	108	inactive
EHMT2	Rucaparib	OCI-C5x (clear cell)	1	67.2	active
EHMT2	Rucaparib	OCI-C5x (clear cell)	2	41.5	active
EHMT2	Rucaparib	OCI-C5x (clear cell)	3	70.9	active
EHMT2	Rucaparib	OCI-P5x (serous)	1	36.4	active
EHMT2	Rucaparib	OCI-P5x (serous)	2	42.3	active
EHMT2	Rucaparib	OCI-P5x (serous)	3	45.4	active
EHMT2	Vehicle	OCI-C5x (clear cell)	1	60.4	active
EHMT2	Vehicle	OCI-C5x (clear cell)	2	55.4	active
EHMT2	Vehicle	OCI-C5x (clear cell)	3	57.3	active
EHMT2	Vehicle	OCI-P5x (serous)	1	46	active
EHMT2	Vehicle	OCI-P5x (serous)	2	40.8	active
EHMT2	Vehicle	OCI-P5x (serous)	3	51.3	active
GRK1	Rucaparib	OCI-C5x (clear cell)	1	36.3	active
GRK1	Rucaparib	OCI-C5x (clear cell)	1	64.3	active
GRK1	Rucaparib	OCI-C5x (clear cell)	1	59.6	active
GRK1	Rucaparib	OCI-C5x (clear cell)	2	44.7	active
GRK1	Rucaparib	OCI-C5x (clear cell)	2	68.8	active
GRK1	Rucaparib	OCI-C5x (clear cell)	2	35.3	active
GRK1	Rucaparib	OCI-C5x (clear cell)	3	69.7	active
GRK1	Rucaparib	OCI-C5x (clear cell)	3	64.8	active
GRK1	Rucaparib	OCI-C5x (clear cell)	3	29.6	active
GRK1	Rucaparib	OCI-P5x (serous)	1	73.3	active
GRK1	Rucaparib	OCI-P5x (serous)	1	77.7	active
GRK1	Rucaparib	OCI-P5x (serous)	1	90.7	inactive
GRK1	Rucaparib	OCI-P5x (serous)	2	77.7	active
GRK1	Rucaparib	OCI-P5x (serous)	2	75.4	active
GRK1	Rucaparib	OCI-P5x (serous)	2	80.6	inactive
GRK1	Rucaparib	OCI-P5x (serous)	3	80.8	inactive
GRK1	Rucaparib	OCI-P5x (serous)	3	86.1	inactive
GRK1	Rucaparib	OCI-P5x (serous)	3	82.6	inactive
GRK1	Vehicle	OCI-C5x (clear cell)	1	84.3	inactive
GRK1	Vehicle	OCI-C5x (clear cell)	1	50.2	active
GRK1	Vehicle	OCI-C5x (clear cell)	1	33.7	active
GRK1	Vehicle	OCI-C5x (clear cell)	2	39.6	active
GRK1	Vehicle	OCI-C5x (clear cell)	2	46.8	active
GRK1	Vehicle	OCI-C5x (clear cell)	2	35.9	active
GRK1	Vehicle	OCI-C5x (clear cell)	3	55.2	active
GRK1	Vehicle	OCI-C5x (clear cell)	3	67.5	active
GRK1	Vehicle	OCI-C5x (clear cell)	3	43.4	active
GRK1	Vehicle	OCI-P5x (serous)	1	75.8	active
GRK1	Vehicle	OCI-P5x (serous)	1	122	inactive
GRK1	Vehicle	OCI-P5x (serous)	1	72.1	active
GRK1	Vehicle	OCI-P5x (serous)	2	92.9	inactive
GRK1	Vehicle	OCI-P5x (serous)	2	78.2	active
GRK1	Vehicle	OCI-P5x (serous)	2	72.2	active
GRK1	Vehicle	OCI-P5x (serous)	3	77.4	active
GRK1	Vehicle	OCI-P5x (serous)	3	81.1	inactive
GRK1	Vehicle	OCI-P5x (serous)	3	101	inactive

9 of these entries, set out differently.
gene,rucaparib or vehicle,cell line,technical replicate,"viability, normalised (%)",outcome
GRK1,Rucaparib,OCI-C5x (clear cell),1,36.3,active
GRK1,Rucaparib,OCI-C5x (clear cell),1,64.3,active
GRK1,Rucaparib,OCI-C5x (clear cell),1,59.6,active
GRK1,Rucaparib,OCI-C5x (clear cell),2,44.7,active
GRK1,Rucaparib,OCI-C5x (clear cell),2,68.8,active
GRK1,Rucaparib,OCI-C5x (clear cell),2,35.3,active
GRK1,Rucaparib,OCI-C5x (clear cell),3,69.7,active
GRK1,Rucaparib,OCI-C5x (clear cell),3,64.8,active
GRK1,Rucaparib,OCI-C5x (clear cell),3,29.6,active
